Data as given in patent publication US20220275081A1.
These are yes or no findings as the source states them, for the method shown. Some entries that bind do so weakly or less than the wild type.

T1: Lrig-1 protein expressed on the surface of L cells (leucine-rich and immunoglobulin-like domains 1) (human) (UniProt Q96JA1)
T1 sequence: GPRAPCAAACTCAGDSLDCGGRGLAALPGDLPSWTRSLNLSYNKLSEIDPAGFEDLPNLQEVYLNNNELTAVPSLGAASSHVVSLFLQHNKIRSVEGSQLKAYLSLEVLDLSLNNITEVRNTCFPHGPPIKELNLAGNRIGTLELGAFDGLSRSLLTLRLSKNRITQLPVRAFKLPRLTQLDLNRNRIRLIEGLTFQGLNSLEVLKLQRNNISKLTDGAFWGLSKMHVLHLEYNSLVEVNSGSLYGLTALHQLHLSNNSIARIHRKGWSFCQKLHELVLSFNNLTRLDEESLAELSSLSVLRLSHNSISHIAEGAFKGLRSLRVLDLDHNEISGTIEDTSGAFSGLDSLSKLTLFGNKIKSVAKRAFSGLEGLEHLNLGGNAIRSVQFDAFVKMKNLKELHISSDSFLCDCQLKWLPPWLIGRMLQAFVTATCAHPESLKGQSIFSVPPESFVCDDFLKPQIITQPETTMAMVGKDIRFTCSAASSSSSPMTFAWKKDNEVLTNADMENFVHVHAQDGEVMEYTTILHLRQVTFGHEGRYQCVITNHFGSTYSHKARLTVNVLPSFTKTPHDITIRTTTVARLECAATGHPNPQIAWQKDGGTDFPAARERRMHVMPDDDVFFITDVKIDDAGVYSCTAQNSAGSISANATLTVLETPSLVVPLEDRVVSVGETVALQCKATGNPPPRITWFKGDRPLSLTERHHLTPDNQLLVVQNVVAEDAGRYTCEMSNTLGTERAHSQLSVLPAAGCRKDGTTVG


molecular target: T1, Lrig-1 protein expressed on the surface of L cells (leucine-rich and immunoglobulin-like domains 1) (human); assay: FACS on L cells stably expressing Lrig-1, eFluor 670 anti-mouse secondary antibody

| Binder | binding |
| --- | --- |
| B8 clone (Production Example 6), Lrig-1 protein-specific monoclonal antibody (antibody, mouse IgG2a, V domains shown) VH: EVQLLESGGGLVQPGGSLRLSCAASGFTFSDYYMSWVRQAPGKGLEWVSGISHDSGSKYYADSVKGRFTISRDNSKNTLYLQMNSLRAEDTAVYYCARHWTTFDYWGQGTLVTVSS VL: QSVLTQPPSASGTPGQRVTISCSGSSSNIGSNNVTWYQQLPGTAPKLLIYANSNRPSGVPDRFSGSKSGTSASLAISGLRSEDEADYYCGAWDYSLSAYVFGGGTKLTVLR | binds |
| D9 clone (Production Example 7), Lrig-1 protein-specific monoclonal antibody (antibody, mouse IgG2a, V domains shown) VH: EVQLLESGGGLVQPGGSLRLSCAASGFTFSNYAMSWVRQAPGKGLEWVSAIYPGGGSIYYADSVKGRFTISRDNSKNTLYLQMNSLRAEDTAVYYCARDILPCPWGRCYYDYAMDVWGQGTLVTVSS VL: QSVLTQPPSASGTPGQRVTISCSDSSSNIGSNTVSWYQQLPGTAPKLLIYADNNRPSGVPDRFSGSKSGTSASLAISGLRSEDEADYYCGTWDYSLSGYVFGGGTKLTVLR | binds |
| H6 clone (Production Example 8), Lrig-1 protein-specific monoclonal antibody (antibody, mouse IgG2a, V domains shown) VH: EVQLLESGGGLVQPGGSLRLSCAASGFTFSNYAMSWVRQAPGKGLEWVSVISHGGGSTYYADSVKGRFTISRDNSKNTLYLQMNSLRAEDTAVYYCARVISNCHLGVCYYSNGMDVWGQGTLVTVSS VL: QSVLTQPPSASGTPGQRVTISCSGSSSNIGNNDVYWYQQLPGTAPKLLIYSDSQRPSGVPDRFSGSKSGTSASLAISGLRSEDEADYYCGTWDYSLSGYVFGGGTKLTVLR | binds |
